From PubChem BioAssay AID248 (DTP/NCI, 2004)
The list does not hold the whole screen: it is rich in T/C values a quarter to a half above the control, in often repeated tests (any T/C) and in doses without a T/C. Further doses and runs are listed elsewhere. T/C: endpoint of the treated group in % of that of the vehicle group. Some doses have a count of surviving animals in place of a T/C: the source files T/C as zero there, which appears to mark a toxic dose or a test without result, not a measured value. Some doses without a T/C left all or most animals alive at the check, yet need not have been tolerated: survival well below the control is almost never listed, so the zero probably covers shortened survival too. Survivors were counted at the toxicity check, usually on the fifth day, unless a day is given; later deaths do not show. Schedule codes are those of the source, taken here to give the interval after Q, in days (D) or hours (H), and the number of doses after X. Some schedule codes hold Z or #, which are not explained here. Where survival is the endpoint, the PubChem record calls one and a half times the control and up active, and a quarter to a half above the control has no call in these data; cut-offs in other NCI protocols can differ. Some entries were tested several times; their values stand side by side, smallest first. Some T/C values carry the count of animals alive at the toxicity check (mostly the fifth day); without a count, all were alive then.

System: L1210 leukemia ip in BDF1 mice, survival T/C
Assay: NCI In Vivo Anticancer Drug Screen. Data for tumor model L1210 Leukemia (intraperitoneal) in B6D2F1 (BDF1) mice
Details: T/C endpoint: mean survival time, higher T/C = longer survival
[1] = dose: 400.0 mg/kg/injection, schedule: Q04DX003 (ip), vehicle: saline
[2] = dose: 200.0 mg/kg/injection, schedule: Q04DX003 (ip), vehicle: Klucel (hydroxypropylcellulose) (HPC)
[3] = dose: 400.0 mg/kg/injection, schedule: Q04DX003 (ip), vehicle: Klucel (hydroxypropylcellulose) (HPC)
[4] = dose: 10.0 mg/kg/injection, schedule: Q01DX001 (ip), vehicle: saline
[5] = dose: 100.0 mg/kg/injection, schedule: Q01DX001 (ip), vehicle: saline
[6] = dose: 200.0 mg/kg/injection, schedule: Q04DX003 (ip), vehicle: saline
[7] = dose: 400.0 mg/kg/injection, schedule: Q04DX002 (ip), vehicle: Klucel (hydroxypropylcellulose) (HPC)

With `O=C(COc1cc2ccccc2cc1C(=O)O)NCc1ccc(Cl)cc1` the survivor count [1] was 3 of 6.

For `C#CCOS(C)(=O)=O`, the survivor count (dose: 40.0 mg/kg/injection, schedule: Q01DX009 (ip), vehicle: saline) was 3 of 3, the survivor count (dose: 100.0 mg/kg/injection, schedule: Q04DX002 (ip), vehicle: saline) was 1 of 3 and the survivor count (dose: 200.0 mg/kg/injection, schedule: Q04DX002 (ip), vehicle: saline) was 0 of 3. For the same compound, the survivor count (dose: 400.0 mg/kg/injection, schedule: Q04DX002 (ip), vehicle: saline) was 0 of 3.

In the case of `CCCCCCCCCCCCN(CCC(=O)O)S(=O)(=O)O`, the survivor count (dose: 150.0 mg/kg/injection, schedule: Q01DX009 (ip), vehicle: Klucel (hydroxypropylcellulose) (HPC)) is reported as 0 of 6, the survivor count [2] is reported as 2 of 6 and the survivor count (dose: 225.0 mg/kg/injection, schedule: Q01DX009 (ip), vehicle: Klucel (hydroxypropylcellulose) (HPC)) is reported as 0 of 6. For the same compound, the survivor count (dose: 335.0 mg/kg/injection, schedule: Q01DX009 (ip), vehicle: Klucel (hydroxypropylcellulose) (HPC)) was 0 of 6 and the survivor count [3] was 2 of 6.

`C[n+]1ccc(NC(=O)c2ccc(NC(=O)c3ccc(C(=O)Nc4ccc(C(=O)Nc5cc[n+](C)cc5)cc4)cc3)cc2)cc1` was tested, and the T/C (dose: 250.0 mg/kg/injection, schedule: Q01DX Z (ip), vehicle: carboxymethylcellulose (CMC)) was 133 % of control.

In the case of `c1nc(SSc2ncnc3nc[nH]c23)c2[nH]cnc2n1`, the T/C (dose: 0.4 mg/kg/injection, schedule: Q04DX003 (ip), vehicle: saline) is reported as 128 % of control, the survivor count (dose: 0.5 mg/kg/injection, schedule: Q01DX009 (ip), vehicle: saline) is reported as 6 of 6 and the T/C (dose: 0.75 mg/kg/injection, schedule: Q04DX003 (ip), vehicle: saline) is reported as 136 % of control. The T/C (dose: 1.0 mg/kg/injection, schedule: Q04DX003 (ip), vehicle: saline) was 126 % of control, the T/C (dose: 1.2 mg/kg/injection, schedule: Q01DX009 (ip), vehicle: saline) was 125 % of control and the T/C (dose: 1.5 mg/kg/injection, schedule: Q04DX003 (ip), vehicle: saline) was 145 % of control. For the same compound, the T/C (dose: 3.0 mg/kg/injection, schedule: Q04DX003 (ip), vehicle: saline) was 132 % of control, the T/C (dose: 4.62 mg/kg/injection, schedule: Q01DX001 (ip), vehicle: saline with Tween-80) was 126 % of control and the T/C (dose: 6.0 mg/kg/injection, schedule: Q04DX003 (ip), vehicle: saline) was 131 % of control. For the same compound, the T/C (dose: 6.5 mg/kg/injection, schedule: Q04DX003 (ip), vehicle: saline with Tween-80) was 130 % of control, the T/C (dose: 7.0 mg/kg/injection, schedule: Q01DX001 (ip), vehicle: saline) was 126 and 133 % of control and the T/C (dose: 8.2 mg/kg/injection, schedule: Q04DX003 (ip), vehicle: Klucel (hydroxypropylcellulose) (HPC)) was 134 % of control. For the same compound, the T/C [4] was 143 % of control, the T/C (dose: 12.5 mg/kg/injection, schedule: Q04DX003 (ip), vehicle: Klucel (hydroxypropylcellulose) (HPC)) was 126 % of control and the T/C (dose: 13.0 mg/kg/injection, schedule: Q04DX003 (ip), vehicle: saline with Tween-80) was 143 % of control. The T/C (dose: 19.0 mg/kg/injection, schedule: Q01DX001 (ip), vehicle: saline) was 136 % of control, the T/C (dose: 23.0 mg/kg/injection, schedule: Q01DX009 (ip), vehicle: saline) was 132 % of control and the T/C (dose: 25.0 mg/kg/injection, schedule: Q04DX003 (ip), vehicle: Klucel (hydroxypropylcellulose) (HPC)) was 137 % of control. The T/C (dose: 26.0 mg/kg/injection, schedule: Q04DX003 (ip), vehicle: saline with Tween-80) was 148 % of control, the T/C (dose: 29.7 mg/kg/injection, schedule: Q04DX003 (ip), vehicle: saline) was 149 % of control and the T/C (dose: 30.0 mg/kg/injection, schedule: Q04DX003 (ip), vehicle: acetone) was 145 % of control. The T/C (dose: 35.0 mg/kg/injection, schedule: Q01DX009 (ip), vehicle: saline) was 127 % of control, the T/C (dose: 45.0 mg/kg/injection, schedule: Q04DX003 (ip), vehicle: acetone) was 145 % of control and the T/C (dose: 50.0 mg/kg/injection, schedule: Q04DX003 (ip), vehicle: Klucel (hydroxypropylcellulose) (HPC)) was 135 % of control. For the same compound, the T/C (dose: 66.0 mg/kg/injection, schedule: Q01DX001 (ip), vehicle: saline) was 130 % of control, the survivor count (dose: 66.0 mg/kg/injection, schedule: Q01DX009 (ip), vehicle: saline) was 6 of 6 and the T/C (dose: 67.5 mg/kg/injection, schedule: Q04DX003 (ip), vehicle: saline) was 149 % of control. For the same compound, the T/C (dose: 75.0 mg/kg/injection, schedule: Q04DX003 (ip), vehicle: Klucel (hydroxypropylcellulose) (HPC)) was 136 and 149 % of control, the T/C (dose: 100.0 mg/kg/injection, schedule: Q01DX001 (ip), vehicle: acetone) was 149 % of control and the T/C [5] was 142 % of control. For the same compound, the survivor count (dose: 100.0 mg/kg/injection, schedule: Q01DX009 (ip), vehicle: saline) was 5 of 6, the survivor count (dose: 125.0 mg/kg/injection, schedule: Q01DX Z (ip), vehicle: saline) was 5 of 6 and the survivor count (dose: 140.0 mg/kg/injection, schedule: Q01DX009 (ip), vehicle: saline with Tween-80) was 4 of 6. The T/C (dose: 150.0 mg/kg/injection, schedule: Q01DX001 (ip), vehicle: saline) was 136 [5 of 6 alive] and 143 % of control, the survivor count (dose: 150.0 mg/kg/injection, schedule: Q04DX003 (ip), vehicle: saline) was 6 of 6 and the T/C (dose: 200.0 mg/kg/injection, schedule: Q01DX001 (ip), vehicle: acetone) was 146 % of control. The survivor count [2] was 5 of 6, the T/C [6] was 148 % of control and the survivor count (dose: 250.0 mg/kg/injection, schedule: Q01DX Z (ip), vehicle: saline) was 2 of 6. The survivor count (dose: 280.0 mg/kg/injection, schedule: Q04DX003 (ip), vehicle: saline) was 5 of 6, the survivor count (dose: 300.0 mg/kg/injection, schedule: Q04DX003 (ip), vehicle: saline) was 6 of 6 and the survivor count (dose: 400.0 mg/kg/injection, schedule: Q01DX001 (ip), vehicle: acetone) was 4 of 6. For the same compound, the survivor count [3] was 5 of 6, the survivor count [1] was 6 of 6 and the survivor count (dose: 500.0 mg/kg/injection, schedule: Q01DX Z (ip), vehicle: saline) was 0 of 6.

For `CCCCCC[N+](C)(C)CCOC(=O)C1C2CC3OC(=O)C1C3C2` (stereo not given), the survivor count [6] was 2 of 4 and the survivor count [1] was 0 of 4.

In the case of `CN(C)Cc1ccccc1COC(=O)c1cccc(Br)c1`, the survivor count [7] is reported as 2 of 3.

In the case of `C[N+]1(CCCNC2=CC(=O)C=CC2=O)CCCC1`, the survivor count (dose: 1.0 mg/kg/injection, schedule: Q01DX001 (ip), vehicle: saline) is reported as 0 of 6, the survivor count (dose: 2.0 mg/kg/injection, schedule: Q01DX001 (ip), vehicle: saline) is reported as 0 of 6 and the survivor count (dose: 4.0 mg/kg/injection, schedule: Q01DX001 (ip), vehicle: saline) is reported as 0 of 6. The survivor count (dose: 5.0 mg/kg/injection, schedule: Q01DX001 (ip), vehicle: saline) was 0 of 6, the survivor count (dose: 8.0 mg/kg/injection, schedule: Q01DX001 (ip), vehicle: saline) was 0 of 6 and the survivor count [4] was 0 of 6. For the same compound, the survivor count (dose: 20.0 mg/kg/injection, schedule: Q01DX001 (ip), vehicle: saline) was 0 of 6, the survivor count (dose: 40.0 mg/kg/injection, schedule: Q01DX001 (ip), vehicle: saline) was 0 of 6 and the survivor count (dose: 80.0 mg/kg/injection, schedule: Q01DX001 (ip), vehicle: saline) was 0 of 6. For the same compound, the survivor count [5] was 0 of 6, the survivor count (dose: 200.0 mg/kg/injection, schedule: Q01DX001 (ip), vehicle: saline) was 0 of 6 and the survivor count (dose: 400.0 mg/kg/injection, schedule: Q01DX001 (ip), vehicle: saline) was 0 of 6.

With `CC[N+]1(CN2CCCCC2)CCCCC1` the survivor count (dose: 100.0 mg/kg/injection, schedule: Q04DX003 (ip), vehicle: Klucel (hydroxypropylcellulose) (HPC)) was 0 of 6, the survivor count [2] was 0 of 6 and the survivor count [3] was 0 of 6.

In the case of `CC1=CC2C(C(C)C)CC1C1C(=O)OC(=O)C21` (stereo not given), the survivor count [7] is reported as 0 of 3.
